This note sets out measurements from patent publication US6027877.

Protein sequences, listed by entry. Tags and fused reporters are not part of them. Lines headed by an entry give the natural chain unless they say otherwise; changes in a name come on top.
UniProt P23909: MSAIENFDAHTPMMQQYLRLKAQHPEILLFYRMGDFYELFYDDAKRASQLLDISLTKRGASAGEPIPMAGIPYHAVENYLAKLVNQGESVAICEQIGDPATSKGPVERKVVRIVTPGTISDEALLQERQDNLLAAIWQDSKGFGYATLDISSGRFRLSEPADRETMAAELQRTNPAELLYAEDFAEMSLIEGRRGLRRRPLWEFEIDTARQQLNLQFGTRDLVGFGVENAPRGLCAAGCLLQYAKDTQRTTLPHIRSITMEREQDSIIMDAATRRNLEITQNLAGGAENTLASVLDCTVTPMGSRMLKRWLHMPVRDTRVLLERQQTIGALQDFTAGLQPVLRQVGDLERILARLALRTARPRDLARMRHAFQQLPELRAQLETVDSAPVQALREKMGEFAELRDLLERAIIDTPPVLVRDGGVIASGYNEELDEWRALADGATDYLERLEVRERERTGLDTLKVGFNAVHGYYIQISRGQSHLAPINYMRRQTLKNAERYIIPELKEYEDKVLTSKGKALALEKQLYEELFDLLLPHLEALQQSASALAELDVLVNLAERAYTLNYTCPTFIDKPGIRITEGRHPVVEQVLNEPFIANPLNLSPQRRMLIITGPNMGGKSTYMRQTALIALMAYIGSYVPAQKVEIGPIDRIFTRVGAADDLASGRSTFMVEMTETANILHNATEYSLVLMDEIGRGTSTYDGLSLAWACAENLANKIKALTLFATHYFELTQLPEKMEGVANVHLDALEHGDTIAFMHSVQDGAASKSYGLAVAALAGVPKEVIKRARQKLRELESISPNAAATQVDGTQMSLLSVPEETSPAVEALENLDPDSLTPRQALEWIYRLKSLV

The target in the series is MutS (Escherichia coli) (UniProt P23909). Kind of series: competition with a labelled probe. As to conditions: did not compete until 500 ng, if at all, against 5 ng biotinylated mismatch 30-mer; variant of beta-globin 30-mer fully matched duplex.

The comparison behind a weaker result is the experiment's own reference, which may not be listed here.

Take “GCACCTGACTCCTGGGGAGAAGTCTGCCGT (double strand) [unlabeled beta-globin 30-mer fully matched duplex]”: the binding result was “binds more weakly”.
